For 58 compounds, cell number change and AC50 results are on record in PubChem BioAssay AID2685 (National Center for Advancing Translational Sciences (NCATS), 2010).

The nature of the experiment: qHTS Assay for Lipid Storage Modulators in Drosophila S3 Cells.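 As to cell number change: cells counted by Cell Tracker Red CMTPX staining in the red channel.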 The following applies: BODIPY lipid droplet fluorescence, 18-24 h; for cell number change: measured here: cell count max response, cells fed with added oleic acid. The procedure, abridged:
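Laser-scanning cytometry quantifies lipid droplet accumulation (500–530 nm total intensity; droplet/cell object ratio) in oleic acid-fed (400 uM added) Drosophila S3 cells treated with a concentration series. 20 uM Triacsin C defined 100% inhibition.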

[1] abbreviates: measured here: lipid fluorescence (Fed channel) AC50, cells fed with added oleic acid.
Setting [2] is: measured here: cell number channel AC50, cells fed with added oleic acid.

Molecules are shown by their SMILES. The list shows a part of the results. These are further read-outs of the screen, such as a control signal, another cell line or another target. No call is given for them. Compounds called inactive in the main read-out are mostly missing here. Words in brackets tell the shape of the fitted curve; partial curves, single points and poor fits give uncertain potencies.

As to `CCN=C1S/C(=C\c2cc(Cl)c(OC)c(OC)c2)C(=O)N1CC`, the cell number change is 20.7%. For the same compound, the AC50 under setting [1] was 1.16 µM [rising, partial curve].

Take `CCc1cc(-c2onc(C)c2-c2cscn2)c(O)cc1OC`: the cell number change is 48.8%. Moreover, the AC50 under setting [2] is 29.1 µM [rising, single point]. Further, under setting [1], the concentration at half-maximal activity (AC50) was 29.1 µM [rising, single point].

As to `CCN(CC)CCOCCOc1ccccc1F`, the cell number change came out at 12.1%. Further, under setting [1], the AC50 is 20.6 µM [falling, partial curve].

For `COc1ccc(OC)c(S(=O)(=O)NC2CCSc3ccccc32)c1` (centres undefined), the cell number change is -4.7%.

With `O=C(Nc1ccc(C(F)(F)F)cc1)c1ccc(NC(=O)C2CCCO2)cc1` (centres undefined), the cell number change was determined as 24.8%. The AC50 under setting [1] is 5.8 µM [rising, partial curve].

In the case of `Cc1ccccc1N1CCN(CCCN2C(=O)CC(=C(c3ccccc3)c3ccccc3)C2=O)CC1`, the cell number change came to 37.5%. Further, under setting [2], the concentration at half-maximal activity (AC50) was 8.2 µM [rising, single point].

`CN1CCN(/C=N/c2sc3c(c2C#N)CCCCC3)CC1`: the cell number change is -18.5%. Further, under setting [1], the AC50 was 0.164 µM [rising, full curve, poor fit].

As to `COc1cccc(C(O)c2cnc(C(C)C)n2C)c1OC` (centres undefined), the cell number change was -12.8%. In addition, under setting [1], the AC50 was 0.146 µM [falling, partial curve].

In the case of `COc1ccc(S(=O)(=O)N2CCOCC2)cc1NC(=O)c1ccc2c(c1)OCO2`, the cell number change is -34.9%. For the same compound, the concentration at half-maximal activity (AC50) under setting [2] was 8.2 µM [falling, partial curve]. In addition, the half-maximal activity concentration (AC50) under setting [1] is 11.6 µM [falling, partial curve, poor fit].

Regarding `Cc1cc(C)c2nc(NC3=NCN(CCN4CCOCC4)CN3)nc(C)c2c1`, the AC50 under setting [1] is 18.4 µM [falling, partial curve].

With `O=C(NC1CCCCC1)c1cccc(OCc2ccccc2)c1`, the cell number change worked out at 7.33%. The AC50 under setting [2] was 6.51 µM [rising, single point].

Turning to `CCCCCCCc1nc2c(=O)n(C)c3ccccc3c2o1`, the cell number change turned out to be 61.7%. Besides, the AC50 under setting [2] is 0.82 µM [rising, full curve]. Moreover, the AC50 under setting [1] is 2.31 µM [rising, partial curve].

As for `CCOc1ccc(OCC)c(NC(=O)C2CCN(c3nn4c(=O)cc(C)nc4s3)CC2)c1`, the cell number change is -33.7%. The AC50 under setting [2] is 1.3 µM [falling, full curve, poor fit].

With `CCOC(=O)c1c(-c2ccc(F)cc2)csc1NC(=O)C1CC=CCC1C(=O)O` (centres undefined), the cell number change was -17.6%. Besides, the AC50 under setting [2] was 2.59 µM [falling, single point]. Also, the AC50 under setting [1] is 6.51 µM [falling, single point].

For the compound `COc1ccc(C(CNC(=O)COc2c(C)cc(C)cc2C)N2CCOCC2)cc1` (centres undefined), the cell number change worked out at 1.77%. Besides, the AC50 under setting [1] was 29.1 µM [rising, single point].

For `Cc1ccc(NC(=O)C(=O)NCCOc2ccc(Cl)cc2)c(C)c1`, the cell number change amounted to 25.1%. For the same compound, the AC50 under setting [1] is 0.366 µM [rising, full curve].

On to `Cc1[nH]n(C(N)=S)c(=O)c1N=Nc1ccc(Br)cc1`, for which the cell number change is -26.5%. Further, under setting [1], the AC50 was 29.1 µM [falling, single point].

`Cn1c(CC(=O)Nc2ccc(Cl)c(Cl)c2)nnc1SCC(=O)Nc1nccs1`: the concentration at half-maximal activity (AC50) by setting is: under setting [2], 1.03 µM [rising, full curve]; under setting [1], 0.731 µM [rising, full curve].

Regarding `CC(C)n1c(O)c(/C=C2\C=Nc3ccccc32)sc1=Nc1ccccc1`, the cell number change worked out at 29.7%. Also, the AC50 under setting [1] was 16.4 µM [rising, single point].

For `O=C(COC(=O)CSc1ccc([N+](=O)[O-])cc1)NCC1CCCO1` (centres undefined), the cell number change was found to be 3.97%. The half-maximal activity concentration (AC50) under setting [2] was 0.651 µM [falling, single point].

For `CC(C(=O)NCCN1C(=O)S/C(=C\c2cccnc2)C1=O)N1C(=O)c2ccccc2C1=O` (centres undefined), the cell number change was 2.27%. Under setting [1], the concentration at half-maximal activity (AC50) is 0.13 µM [rising, full curve, poor fit].

As to `O=c1[nH]c2cc3c(cc2cc1CN(CC1CCCO1)S(=O)(=O)c1ccccc1)OCCO3` (centres undefined), the cell number change stood at 7.67%. For the same compound, the AC50 under setting [1] was 7.31 µM [rising, partial curve].

For `N/C(=N\OC(=O)c1ccc(Cl)cc1[N+](=O)[O-])c1cccnc1`, the cell number change is -57.7%. The AC50 under setting [2] is 29.1 µM [falling, single point]. Moreover, the half-maximal activity concentration (AC50) under setting [1] is 29.1 µM [falling, single point].

For `CNC(=O)CNC(=O)Nc1ccc(C)cc1`, the cell number change came to 8.68%. The AC50 under setting [1] was 0.651 µM [falling, single point].

With `COc1ccc(CCNC(=O)CCCCCn2c(SCC(N)=O)nc3cc4c(cc3c2=O)OCO4)cc1OC`, the half-maximal activity concentration (AC50) was 0.116 µM [rising, single point] under setting [2] and 0.092 µM [rising, partial curve, poor fit] under setting [1].

`CCNC(=O)CN1C(=O)NC(Cc2ccccc2)(Cc2ccccc2)C1=O`: the cell number change worked out at 15.9%. Moreover, the concentration at half-maximal activity (AC50) under setting [1] was 29.1 µM [rising, single point].

On to `N=c1c(C(=O)NCc2ccc3c(c2)OCO3)cc2c(=O)n3ccccc3nc2n1Cc1cccnc1`, for which the cell number change is -27.2%.

Take `COc1ccc(CC(=O)Nc2ccc(C(=O)O)cc2NC(=O)Cc2ccc(OC)cc2)cc1`: the cell number change is -3.13%. Further, under setting [1], the AC50 was 20.6 µM [falling, single point].

As for `O=C(Nc1ccc(-c2nc3ccccc3o2)cc1)c1ccc(N2CCOCC2)c([N+](=O)[O-])c1`, the cell number change came to 145%. Further, the AC50 under setting [2] was 29.1 µM [rising, single point]. Also, the AC50 under setting [1] was 29.1 µM [rising, single point].

Regarding `CC(=O)NC12CC3CC(C1)CC(C(=O)N(C)CC(=O)Nc1ccc(F)c(F)c1F)(C3)C2`, the cell number change was -6.88%.

`CCC(C)(C)NC(=O)C(c1ccco1)N(C(=O)c1csnn1)c1cccc(F)c1` (centres undefined): the cell number change was -0.698%. Further, the concentration at half-maximal activity (AC50) under setting [1] is 29.1 µM [falling, single point].

For the compound `CN(C)CCCN1C(=O)c2cccc3c([N+](=O)[O-])ccc(c23)C1=O`, the cell number change was -63.9%. For the same compound, under setting [2], the AC50 was 29.1 µM [falling, single point]. Under setting [1], the concentration at half-maximal activity (AC50) was 29.1 µM [falling, single point].

As to `CC(C)Oc1cc(NC(=O)CSCC(=O)Nc2cccc(C(F)(F)F)c2)c(Cl)cc1Cl`, the AC50 under setting [1] was 25.9 µM [falling, single point].

Take `Cc1ccnc2nc(C(=O)OCC(=O)NCc3cccc(Cl)c3)nn12`: the cell number change worked out at 4.75%. The AC50 under setting [1] was 1.84 µM [falling, full curve, poor fit].

For `CCc1cccc(C)c1NC(=O)N(C)C1CCCCC1`, the cell number change is -32.9%. For the same compound, the AC50 under setting [2] is 0.231 µM [falling, full curve]. Besides, the half-maximal activity concentration (AC50) under setting [1] was 0.326 µM [falling, full curve, poor fit].

Take `COC(=O)c1cc2ccsc2n1CC(=O)N1CCCc2ccccc21`: the cell number change is -18.1%. The half-maximal activity concentration (AC50) under setting [1] was 0.146 µM [falling, single point].

Regarding `Cc1cc(C)n2nc(C(=O)Nc3nnc(C4CC4)s3)nc2n1`, the cell number change is -10.1%. Further, the AC50 under setting [1] was 5.17 µM [falling, full curve, poor fit].

Regarding `O=C(O)C1C(c2ccccc2)C(C(=O)OCc2ccco2)C1c1ccccc1` (centres undefined), the cell number change was -10.2%.

Turning to `Cc1ccc(N(Cc2ccccc2)C(=O)c2cccc(F)c2)cc1`, the cell number change was found to be 16.8%. The AC50 under setting [1] is 0.461 µM [falling, single point].

Regarding `CCCn1c(=O)c2ccccc2n2c(SCCOc3ccccc3)nnc12`, the cell number change was -27.9%.

`CCN(CCO)c1ncnc2c1sc1nc(CC(C)C)c3c(c12)CC(C)(C)OC3`: the cell number change stood at 23.1%. The concentration at half-maximal activity (AC50) under setting [1] is 13 µM [rising, partial curve].

For `CCOc1ccc(NC(=O)N(C2CCCCC2)C(C)c2cccnc2)cc1` (centres undefined), the cell number change was 0.184%. In addition, the half-maximal activity concentration (AC50) under setting [1] was 1.3 µM [rising, full curve, poor fit].

`Cc1cccc(NC(=O)c2ccc3c(c2)C(=O)N(c2ccccc2C)C3=O)n1`: under setting [2], the half-maximal activity concentration (AC50) was 3.66 µM [rising, partial curve, poor fit].

Take `COc1ccc(-n2c(-c3cnccn3)n[nH]c2=S)cc1`: the cell number change was found to be 4.74%. Further, the AC50 under setting [1] was 29.1 µM [falling, single point].

Regarding `COc1ccc(-c2c(C)oc3c(CN4CCN(CCO)CC4)c(O)ccc3c2=O)cc1OC`, the AC50 under setting [1] was 6.51 µM [rising, single point].

Take `Cc1ccc(F)cc1NS(=O)(=O)c1ccc(Cl)s1`: the cell number change was -9.77%. Further, under setting [1], the concentration at half-maximal activity (AC50) is 0.082 µM [rising, full curve, poor fit].

As to `COC(=O)c1sc(N2CCN(Cc3ccccc3)CC2)nc1N`, the cell number change was determined as 18%. Also, the AC50 under setting [1] is 3.66 µM [rising, partial curve].

`CC(C)C(=O)N1CCC(n2nccc2NC(=O)CCc2ccccc2)CC1`: the cell number change worked out at 23.2%. For the same compound, the AC50 under setting [1] was 29.1 µM [rising, single point].

Turning to `CCOc1ccc(S(=O)(=O)N2CCc3cc(OC)c(OC)cc3C2)cc1`, the cell number change is -13.4%. The AC50 under setting [1] was 18.4 µM [rising, single point].

On to `CCOc1ccc(C2C(C#N)=C(N)SC(N)=C2C#N)cc1OCC`, for which the cell number change is -78.8%. In addition, the AC50 under setting [2] was 18.4 µM [falling, partial curve]. Besides, the AC50 under setting [1] was 29.1 µM [falling, single point].

Take `Cc1c(C2Nc3ccccc3NC3=C2C(=O)CC(C)(C)C3)cnn1C` (centres undefined): the cell number change is -21.5%. For the same compound, under setting [1], the AC50 is 0.82 µM [falling, partial curve].

On to `Cc1cccc(C(C)C)c1NC(=O)COC(=O)CNS(=O)(=O)c1ccccc1`, for which the AC50 under setting [1] is 0.58 µM [rising, full curve, poor fit].

With `COCCNC(=O)c1ccccc1NC(=O)c1ccccc1N(C)S(=O)(=O)c1ccc(C)cc1`, the cell number change is -39.8%. Besides, the concentration at half-maximal activity (AC50) under setting [1] is 0.00517 µM [falling, full curve, poor fit].

Take `CC1(C)C2CCC1(C)C(OC(=O)CNc1ccccc1)C2` (centres undefined): the cell number change is -0.117%. The AC50 under setting [1] is 0.651 µM [falling, partial curve, poor fit].

As for `O=C1CCC(=O)N1OCCCOc1ccccc1`, the cell number change was 19.1%. Under setting [1], the concentration at half-maximal activity (AC50) was 0.00517 µM [falling, full curve].

As for `O=C(Nc1ccccc1C(=O)O)c1cccc(NS(=O)(=O)c2ccc(Br)cc2)c1`, the cell number change is -13.2%. The AC50 under setting [1] is 14.6 µM [rising, partial curve].

As for `Cc1ccccc1CN1CCN(S(=O)(=O)c2cccc3nsnc23)CC1`, the cell number change is -0.293%. Further, the AC50 under setting [1] is 32.6 µM [falling, single point].

On to `O=C(O)c1cc(N/N=C/c2ccc(N3CCOCC3)cc2)ccc1Cl`, for which the cell number change was found to be 15.1%.
